Test results: the supplement of paper PMC10849652
This is one part of the list.

Chains of the proteins cited; added tags and fusions are not shown. Lines headed by an entry give the natural chain unless they say otherwise; changes in a name come on top.
UniProt P24468: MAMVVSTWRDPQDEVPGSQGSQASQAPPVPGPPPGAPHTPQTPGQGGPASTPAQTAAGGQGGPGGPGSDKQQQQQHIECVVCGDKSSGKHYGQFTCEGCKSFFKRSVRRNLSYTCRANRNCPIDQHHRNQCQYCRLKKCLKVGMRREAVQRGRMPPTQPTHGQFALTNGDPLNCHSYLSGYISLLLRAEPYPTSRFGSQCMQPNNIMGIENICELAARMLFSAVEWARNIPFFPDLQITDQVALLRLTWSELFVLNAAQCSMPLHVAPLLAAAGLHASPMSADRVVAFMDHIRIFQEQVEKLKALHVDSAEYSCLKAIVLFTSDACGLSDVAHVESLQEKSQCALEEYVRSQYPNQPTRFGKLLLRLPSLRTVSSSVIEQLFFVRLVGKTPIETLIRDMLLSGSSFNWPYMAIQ
UniProt Q9ULX3: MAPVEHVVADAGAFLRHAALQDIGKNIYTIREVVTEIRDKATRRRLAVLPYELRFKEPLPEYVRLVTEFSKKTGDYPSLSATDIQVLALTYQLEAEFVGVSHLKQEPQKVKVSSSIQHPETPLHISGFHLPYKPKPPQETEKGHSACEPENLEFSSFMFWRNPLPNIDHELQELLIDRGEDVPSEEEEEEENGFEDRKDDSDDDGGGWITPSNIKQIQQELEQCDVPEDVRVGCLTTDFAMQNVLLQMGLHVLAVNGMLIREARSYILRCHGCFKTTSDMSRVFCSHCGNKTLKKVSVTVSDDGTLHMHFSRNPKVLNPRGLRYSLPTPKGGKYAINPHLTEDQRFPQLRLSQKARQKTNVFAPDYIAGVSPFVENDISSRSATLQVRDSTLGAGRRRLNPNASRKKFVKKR
UniProt P16083: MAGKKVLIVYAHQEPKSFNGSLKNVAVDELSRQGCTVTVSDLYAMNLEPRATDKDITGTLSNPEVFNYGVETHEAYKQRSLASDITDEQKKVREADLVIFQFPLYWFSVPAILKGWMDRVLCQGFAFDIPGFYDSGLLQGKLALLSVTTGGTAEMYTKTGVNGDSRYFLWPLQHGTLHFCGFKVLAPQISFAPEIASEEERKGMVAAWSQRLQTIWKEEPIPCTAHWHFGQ
UniProt O75323: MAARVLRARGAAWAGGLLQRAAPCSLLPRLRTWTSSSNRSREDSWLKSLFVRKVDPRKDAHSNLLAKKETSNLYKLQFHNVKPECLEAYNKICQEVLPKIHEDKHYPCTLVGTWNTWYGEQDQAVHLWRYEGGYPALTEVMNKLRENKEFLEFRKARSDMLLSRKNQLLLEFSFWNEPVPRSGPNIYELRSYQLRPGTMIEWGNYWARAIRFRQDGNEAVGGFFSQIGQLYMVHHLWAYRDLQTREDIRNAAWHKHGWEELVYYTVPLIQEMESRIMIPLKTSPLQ
UniProt Q9Y221: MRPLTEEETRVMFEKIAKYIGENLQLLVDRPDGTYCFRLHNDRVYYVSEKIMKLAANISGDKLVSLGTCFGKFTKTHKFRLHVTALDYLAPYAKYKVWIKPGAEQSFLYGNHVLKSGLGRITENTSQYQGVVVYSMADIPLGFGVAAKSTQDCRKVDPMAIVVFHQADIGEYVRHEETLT
UniProt O60361, whole entry, looked up: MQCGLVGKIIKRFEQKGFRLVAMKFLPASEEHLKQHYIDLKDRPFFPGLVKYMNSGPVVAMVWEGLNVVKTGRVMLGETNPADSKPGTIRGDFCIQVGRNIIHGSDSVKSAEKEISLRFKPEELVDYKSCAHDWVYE
UniProt Q12857, whole entry, looked up: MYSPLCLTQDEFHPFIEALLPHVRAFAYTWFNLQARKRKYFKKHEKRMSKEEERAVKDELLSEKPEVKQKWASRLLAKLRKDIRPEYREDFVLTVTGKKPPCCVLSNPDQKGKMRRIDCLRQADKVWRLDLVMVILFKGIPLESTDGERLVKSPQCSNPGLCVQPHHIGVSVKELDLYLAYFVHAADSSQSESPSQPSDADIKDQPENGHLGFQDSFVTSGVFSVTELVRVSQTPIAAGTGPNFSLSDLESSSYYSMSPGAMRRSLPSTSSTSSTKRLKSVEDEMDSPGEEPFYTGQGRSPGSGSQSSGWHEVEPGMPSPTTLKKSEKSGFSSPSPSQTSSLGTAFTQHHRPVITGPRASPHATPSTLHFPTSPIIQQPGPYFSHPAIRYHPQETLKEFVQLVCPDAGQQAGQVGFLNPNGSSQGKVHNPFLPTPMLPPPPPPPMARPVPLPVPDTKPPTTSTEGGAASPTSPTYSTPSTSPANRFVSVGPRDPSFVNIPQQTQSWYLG
UniProt Q15233: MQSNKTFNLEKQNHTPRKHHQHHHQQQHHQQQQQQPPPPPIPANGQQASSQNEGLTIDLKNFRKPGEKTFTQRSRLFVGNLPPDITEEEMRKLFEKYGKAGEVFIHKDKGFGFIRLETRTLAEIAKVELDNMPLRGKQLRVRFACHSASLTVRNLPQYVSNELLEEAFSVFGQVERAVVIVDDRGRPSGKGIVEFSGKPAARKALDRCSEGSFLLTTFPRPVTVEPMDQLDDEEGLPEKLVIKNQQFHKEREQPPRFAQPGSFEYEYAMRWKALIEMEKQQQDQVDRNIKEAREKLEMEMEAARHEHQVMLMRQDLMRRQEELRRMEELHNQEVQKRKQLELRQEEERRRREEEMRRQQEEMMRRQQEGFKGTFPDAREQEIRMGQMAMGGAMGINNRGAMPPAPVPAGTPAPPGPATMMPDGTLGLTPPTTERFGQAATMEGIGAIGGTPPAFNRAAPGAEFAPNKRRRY
UniProt Q9Y3C1: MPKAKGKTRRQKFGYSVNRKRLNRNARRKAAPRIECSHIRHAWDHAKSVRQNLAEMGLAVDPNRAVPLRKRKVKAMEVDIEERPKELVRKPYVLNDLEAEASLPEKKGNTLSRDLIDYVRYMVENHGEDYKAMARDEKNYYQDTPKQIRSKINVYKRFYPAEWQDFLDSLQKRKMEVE
UniProt Q14934: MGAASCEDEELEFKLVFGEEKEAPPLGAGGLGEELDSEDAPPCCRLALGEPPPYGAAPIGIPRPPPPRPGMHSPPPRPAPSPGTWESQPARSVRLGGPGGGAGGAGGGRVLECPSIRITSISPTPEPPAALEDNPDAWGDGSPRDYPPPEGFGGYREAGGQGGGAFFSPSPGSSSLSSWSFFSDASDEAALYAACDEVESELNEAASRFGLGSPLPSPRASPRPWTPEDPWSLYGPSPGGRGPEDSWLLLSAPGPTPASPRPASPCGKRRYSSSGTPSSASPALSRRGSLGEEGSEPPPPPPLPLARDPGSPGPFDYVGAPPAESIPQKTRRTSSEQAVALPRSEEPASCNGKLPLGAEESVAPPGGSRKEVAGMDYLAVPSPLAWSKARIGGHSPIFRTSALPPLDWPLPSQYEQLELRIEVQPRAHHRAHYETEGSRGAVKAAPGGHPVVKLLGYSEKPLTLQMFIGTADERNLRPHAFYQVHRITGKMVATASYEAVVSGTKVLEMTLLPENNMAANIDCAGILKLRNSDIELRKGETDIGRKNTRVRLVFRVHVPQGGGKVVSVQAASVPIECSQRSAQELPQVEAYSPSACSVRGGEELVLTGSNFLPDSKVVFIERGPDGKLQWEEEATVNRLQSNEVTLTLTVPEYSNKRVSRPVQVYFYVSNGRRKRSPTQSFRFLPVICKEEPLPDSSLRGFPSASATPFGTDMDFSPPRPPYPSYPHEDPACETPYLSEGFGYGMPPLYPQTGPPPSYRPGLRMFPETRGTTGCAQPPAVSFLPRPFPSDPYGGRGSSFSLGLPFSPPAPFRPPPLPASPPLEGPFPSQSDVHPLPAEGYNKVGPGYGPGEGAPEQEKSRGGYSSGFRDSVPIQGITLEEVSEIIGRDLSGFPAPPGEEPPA
UniProt Q9NPE2: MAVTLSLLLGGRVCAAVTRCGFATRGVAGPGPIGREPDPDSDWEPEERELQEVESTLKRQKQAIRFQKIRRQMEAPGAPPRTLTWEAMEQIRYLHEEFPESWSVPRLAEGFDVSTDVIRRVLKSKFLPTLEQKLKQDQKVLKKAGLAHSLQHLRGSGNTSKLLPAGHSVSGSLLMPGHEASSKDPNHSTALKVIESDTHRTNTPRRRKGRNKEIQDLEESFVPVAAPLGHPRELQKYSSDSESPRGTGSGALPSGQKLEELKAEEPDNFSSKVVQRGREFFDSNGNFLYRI
UniProt Q9UFN0: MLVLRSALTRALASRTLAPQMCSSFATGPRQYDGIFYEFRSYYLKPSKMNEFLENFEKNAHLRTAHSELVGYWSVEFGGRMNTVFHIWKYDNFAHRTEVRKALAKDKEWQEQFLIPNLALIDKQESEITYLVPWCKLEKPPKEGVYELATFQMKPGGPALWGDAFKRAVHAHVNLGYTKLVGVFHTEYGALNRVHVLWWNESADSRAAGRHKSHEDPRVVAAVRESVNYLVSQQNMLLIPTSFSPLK
UniProt Q86X76: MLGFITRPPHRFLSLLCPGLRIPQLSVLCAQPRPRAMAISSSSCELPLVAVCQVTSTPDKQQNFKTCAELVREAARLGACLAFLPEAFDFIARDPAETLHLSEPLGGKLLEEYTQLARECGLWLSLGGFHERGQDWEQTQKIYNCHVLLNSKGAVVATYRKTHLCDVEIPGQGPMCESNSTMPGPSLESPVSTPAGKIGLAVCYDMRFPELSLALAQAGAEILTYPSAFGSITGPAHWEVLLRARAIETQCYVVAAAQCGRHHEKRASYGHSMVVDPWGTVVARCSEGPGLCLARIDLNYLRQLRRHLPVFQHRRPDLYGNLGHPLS
UniProt Q5JS37: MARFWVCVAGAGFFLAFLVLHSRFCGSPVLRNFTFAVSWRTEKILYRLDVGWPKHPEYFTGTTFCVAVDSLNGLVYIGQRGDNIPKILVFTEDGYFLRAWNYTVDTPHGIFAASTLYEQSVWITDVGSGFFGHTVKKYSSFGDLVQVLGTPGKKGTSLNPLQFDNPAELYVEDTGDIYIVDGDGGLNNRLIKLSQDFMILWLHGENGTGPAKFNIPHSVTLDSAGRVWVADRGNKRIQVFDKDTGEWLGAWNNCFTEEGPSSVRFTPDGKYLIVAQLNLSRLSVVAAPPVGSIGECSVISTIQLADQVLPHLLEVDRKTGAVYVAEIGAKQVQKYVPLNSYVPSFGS
UniProt P13056: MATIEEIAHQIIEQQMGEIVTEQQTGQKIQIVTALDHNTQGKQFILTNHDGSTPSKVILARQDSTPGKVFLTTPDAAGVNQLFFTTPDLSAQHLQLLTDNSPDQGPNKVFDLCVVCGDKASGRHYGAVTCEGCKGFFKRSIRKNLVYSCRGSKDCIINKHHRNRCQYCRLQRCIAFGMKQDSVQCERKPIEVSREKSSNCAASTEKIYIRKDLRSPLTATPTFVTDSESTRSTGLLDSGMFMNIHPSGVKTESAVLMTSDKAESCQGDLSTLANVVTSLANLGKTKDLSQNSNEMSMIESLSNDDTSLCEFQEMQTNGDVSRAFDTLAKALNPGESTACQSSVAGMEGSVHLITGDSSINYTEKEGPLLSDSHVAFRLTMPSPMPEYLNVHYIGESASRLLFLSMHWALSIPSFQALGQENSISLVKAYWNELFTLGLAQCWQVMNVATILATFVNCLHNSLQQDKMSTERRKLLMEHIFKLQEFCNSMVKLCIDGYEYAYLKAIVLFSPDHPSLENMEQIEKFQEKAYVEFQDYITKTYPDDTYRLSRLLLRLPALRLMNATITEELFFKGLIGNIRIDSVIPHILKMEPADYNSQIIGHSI
UniProt Q7RTR2: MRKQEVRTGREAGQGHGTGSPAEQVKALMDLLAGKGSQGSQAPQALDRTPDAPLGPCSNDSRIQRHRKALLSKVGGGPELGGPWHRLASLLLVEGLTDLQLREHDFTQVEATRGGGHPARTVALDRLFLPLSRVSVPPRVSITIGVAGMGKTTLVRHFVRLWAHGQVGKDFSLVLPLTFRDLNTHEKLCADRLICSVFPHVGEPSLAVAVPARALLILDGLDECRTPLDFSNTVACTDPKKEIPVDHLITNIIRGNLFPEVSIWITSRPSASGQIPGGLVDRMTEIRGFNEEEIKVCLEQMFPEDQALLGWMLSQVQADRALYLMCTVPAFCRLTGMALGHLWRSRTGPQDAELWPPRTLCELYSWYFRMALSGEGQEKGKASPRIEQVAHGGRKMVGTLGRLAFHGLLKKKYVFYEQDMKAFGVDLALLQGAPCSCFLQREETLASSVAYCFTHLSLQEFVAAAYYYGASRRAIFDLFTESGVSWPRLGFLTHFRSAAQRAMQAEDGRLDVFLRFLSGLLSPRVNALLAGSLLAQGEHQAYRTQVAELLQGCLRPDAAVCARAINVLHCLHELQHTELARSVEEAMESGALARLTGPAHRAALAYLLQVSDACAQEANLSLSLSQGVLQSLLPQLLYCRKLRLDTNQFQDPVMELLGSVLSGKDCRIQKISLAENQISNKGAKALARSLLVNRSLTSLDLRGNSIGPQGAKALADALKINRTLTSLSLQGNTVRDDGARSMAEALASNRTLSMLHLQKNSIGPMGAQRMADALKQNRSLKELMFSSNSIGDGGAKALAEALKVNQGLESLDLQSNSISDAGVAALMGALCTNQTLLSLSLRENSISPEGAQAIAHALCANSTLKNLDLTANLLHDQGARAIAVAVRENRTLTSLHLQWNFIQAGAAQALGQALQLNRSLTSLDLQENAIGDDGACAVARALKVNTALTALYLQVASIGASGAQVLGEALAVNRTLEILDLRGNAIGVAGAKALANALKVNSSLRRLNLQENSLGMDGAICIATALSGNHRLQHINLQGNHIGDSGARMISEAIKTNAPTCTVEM

How the values were obtained:
Assay in all cases: log2 fold change, soluble protein after heating vs DMSO (PISA); higher = thermal stabilisation; K562 cells, 10 uM, 30 min; active = over 0.2 and 3.5 SD of the protein, either way, in both replicates (recomputed)
[1] = compound: NC(=O)Nc1cc(-c2cccc(F)c2)sc1C(=O)N[C@H]1CCCNC1
In short: (§1)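 K562 cells at 2×10^6 cells/mL were exposed to 10 μM compound for 30 min, then aliquots were heated for 3 min across 48°C-58°C, pooled, and extracted in PBS containing 0.5% NP-40 at 4°C. The supernatant after 21,000xg for 90 min was taken as soluble protein and measured by TMTpro 16plex LC-MS/MS with channel sums equalised. Thermal stability is reported relative to control samples, with values from duplicates. Fold changes are given on a log2 scale.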

[2] = compound: NC(=O)c1cnc(N[C@@H]2CCCC[C@@H]2N)nc1Nc1cccc(-n2nccn2)c1
In short: as §1

[3] = compound: NC1(c2ccc(-c3nc4ccn5c(=O)[nH]nc5c4cc3-c3ccccc3)cc2)CCC1
In short: as §1

[4] = compound: NCC(=O)Nc1ccc(-n2nc(C(F)(F)F)cc2-c2ccc3c(ccc4ccccc43)c2)cc1
In short: as §1

entinostat = compound: Nc1ccccc1NC(=O)c1ccc(CNC(=O)OCc2cccnc2)cc1 [entinostat]
In short: as §1

vorinostat = compound: O=C(CCCCCCC(=O)Nc1ccccc1)NO [vorinostat]
In short: as §1

citarinostat = compound: O=C(CCCCCCNC(=O)c1cnc(N(c2ccccc2)c2ccccc2Cl)nc1)NO [citarinostat]
In short: as §1

silmitasertib = compound: O=C(O)c1ccc2c(c1)nc(Nc1cccc(Cl)c1)c1ccncc12 [silmitasertib]
In short: as §1

[5] = compound: O=C1NC(=O)C(c2cnc3ccccn23)=C1c1cn2c3c(cc(F)cc13)CN(C(=O)N1CCCCC1)CC2
In short: as §1

[6] = compound: c1cc(OCCN2CCCCC2)cc(-c2n[nH]c3ccc(-c4nnc[nH]4)cc23)c1
In short: as §1

Measured: log2 fold change

NR2F2 (UniProt P24468)
inactive: [1] 0.029 | [2] -0.1 | [3] -0.135 | [4] -0.032 | entinostat -0.01 | vorinostat -0.061 | citarinostat -0.038 | silmitasertib -0.031 | [5] -0.002 | [6] -0.049

NOB1 (UniProt Q9ULX3)
inactive: [1] -0.032 | [2] 0.002 | [3] -0.041 | [4] -0.021 | entinostat 0.047 | vorinostat 0.093 | citarinostat -0.003 | silmitasertib -0.096 | [5] 0.062 | [6] 0.038

NF1 (UniProt P21359)
inactive: [1] -0.211 | [2] 0.002 | [3] 0.002 | [4] -0.175 | entinostat -0.064 | vorinostat -0.079 | citarinostat -0.216 | silmitasertib 0.027 | [5] -0.215 | [6] -0.031

NQO2 (UniProt P16083)
inactive: [1] 0.001 | [2] 0.002 | [3] 0.039 | [4] 0.031 | entinostat 0.022 | vorinostat -0.04 | citarinostat 0.002 | silmitasertib 0.016 | [5] -0.042 | [6] -0.007

NPC1 (UniProt O15118)
inactive: [1] 0.002 | [2] 0.039 | [3] -0.196 | [4] -0.017 | entinostat -0.049 | vorinostat 0.004 | citarinostat 0.017 | silmitasertib 0.031 | [5] 0.027 | [6] -0.106

NIPSNAP2 (UniProt O75323)
inactive: [1] -0.084 | [2] -0.047 | [3] -0.004 | [4] -0.033 | entinostat 0.027 | vorinostat -0.016 | citarinostat -0.021 | silmitasertib -0.039 | [5] -0.179 | [6] 0.023

NEMF (UniProt O60524)
inactive: [1] 0.097 | [2] 0.045 | [3] 0.239 | [4] 0.098 | entinostat 0.03 | vorinostat 0.015 | citarinostat -0.077 | silmitasertib 0.164 | [5] 0.227 | [6] -0.243

NIP7 (UniProt Q9Y221)
inactive: [1] 0.169 | [2] -0.026 | [3] 0.178 | [4] 0.148 | entinostat -0.047 | vorinostat -0.024 | citarinostat -0.107 | silmitasertib 0.135 | [5] 0.383 | [6] -0.113

NME2P1 (UniProt O60361)
inactive: [1] 0.07 | [2] -0.146 | [3] -0.124 | [4] -0.306 | entinostat -0.01 | vorinostat 0.036 | citarinostat -0.114 | silmitasertib 0.048 | [5] -0.011 | [6] -0.161

NRBF2 (UniProt Q96F24)
inactive: [1] 0.001 | [2] -0.018 | [3] -0.008 | [4] -0.055 | entinostat 0.023 | vorinostat -0.064 | citarinostat -0.035 | silmitasertib 0.024 | [5] -0.039 | [6] -0.058

NFIA isoform 4 (UniProt Q12857)
inactive: [1] 0.025 | [2] -0.039 | [3] 0.021 | [4] 0.018 | entinostat -0.046 | vorinostat -0.14 | citarinostat -0.109 | silmitasertib 0.043 | [5] 0.028 | [6] -0.096

NOL11 (UniProt Q9H8H0)
inactive: [1] 0.042 | [2] 0.055 | [3] 0.041 | [4] 0.038 | entinostat -0.019 | vorinostat -0.013 | citarinostat 0.035 | silmitasertib 0.068 | [5] 0.02 | [6] -0.041

NONO (UniProt Q15233)
inactive: [1] 0.047 | [2] -0.014 | [3] 0.155 | [4] 0.029 | entinostat 0.059 | vorinostat 0.088 | citarinostat 0.079 | silmitasertib 0.13 | [5] 0.065 | [6] -0.128

NFKB1 isoform 2 (UniProt P19838)
inactive: [1] -0.01 | [2] -0.117 | [3] -0.138 | [4] -0.033 | entinostat -0.014 | vorinostat 0.217 | citarinostat 0.055 | silmitasertib -0.015 | [5] 0.17 | [6] -0.104

NSMAF (UniProt Q92636)
inactive: [1] -0.018 | [2] -0.107 | [3] -0.129 | [4] -0.18 | entinostat 0.021 | vorinostat -0.067 | citarinostat 0.041 | silmitasertib -0.01 | [5] -0.022 | [6] -0.056

NFIC (UniProt P08651)
inactive: [1] -0.06 | [2] 0.009 | [3] 0.092 | [4] 0.036 | entinostat -0.159 | vorinostat 0.007 | citarinostat -0.083 | silmitasertib 0.089 | [5] 0.021 | [6] -0.064

NOP16 (UniProt Q9Y3C1)
inactive: [1] -0.034 | [2] 0.115 | [3] 0.326 | [4] 0.186 | entinostat -0.144 | vorinostat -0.089 | citarinostat -0.102 | silmitasertib 0.214 | [5] 0.166 | [6] -0.292

NFATC4 isoform 2 (UniProt Q14934)
inactive: [1] -0.149 | [2] -0.064 | [3] -0.379 | [4] -0.193 | entinostat 0.013 | vorinostat 0.025 | citarinostat -0.156 | silmitasertib 0.073 | [5] -0.073 | [6] -0.076

NGRN (UniProt Q9NPE2)
inactive: [1] -0.096 | [2] 0.025 | [3] 0.005 | [4] -0.001 | entinostat -0.027 | vorinostat -0.006 | citarinostat 0.009 | silmitasertib 0.14 | [5] 0.115 | [6] -0.032

NOSTRIN isoform 4 (UniProt Q8IVI9)
inactive: [1] -0.057 | [2] -0.132 | [3] 0.101 | entinostat 0.132 | citarinostat -0.021 | silmitasertib 0.232 | [6] -0.062

NIPSNAP3A (UniProt Q9UFN0)
inactive: [1] 0.028 | [2] 0.049 | [3] -0.056 | [4] -0.016 | entinostat -0.01 | vorinostat -0.099 | citarinostat 0.051 | silmitasertib -0.006 | [5] -0.026 | [6] -0.045

NIT1 (UniProt Q86X76)
inactive: [1] 0 | [2] 0.005 | [3] 0.04 | [4] -0.006 | entinostat -0.017 | vorinostat 0.009 | citarinostat 0.036 | silmitasertib 0.047 | [5] -0.056 | [6] -0.035

NHLRC3 (UniProt Q5JS37)
inactive: [1] 0.074 | [2] 0.089 | [3] -0.049 | entinostat -0.055 | vorinostat 0.027 | citarinostat -0.021 | silmitasertib -0.044 | [5] 0.091 | [6] 0.087

NOSIP (UniProt Q9Y314)
inactive: [1] 0 | [2] -0.004 | [3] -0.095 | [4] -0.121 | entinostat 0.16 | vorinostat 0.163 | citarinostat 0.136 | silmitasertib 0.082 | [5] -0.095 | [6] 0.019

NR2C1 (UniProt P13056)
inactive: [1] -0.096 | [2] -0.055 | [3] 0.022 | [4] 0.503 | entinostat -0.023 | silmitasertib -0.082 | [5] 0.012

NLRC3 isoform 2 (UniProt Q7RTR2)
inactive: [1] -0.494 | [2] -0.334 | [3] -0.206 | [4] -0.359 | entinostat -0.268 | citarinostat -0.058 | silmitasertib 0.306 | [5] -0.551 | [6] -0.131

NPC1L1 (UniProt Q9UHC9)
inactive: [1] 0.011 | [2] -0.038 | [3] -0.104 | [4] -0.024 | entinostat -0.011 | citarinostat 0.036 | silmitasertib -0.028 | [6] 0.054

NES (UniProt P48681)
inactive: [1] 0.072 | [2] -0.034 | [3] 0.007 | [4] 0.165 | entinostat 0.084 | vorinostat -0.044 | citarinostat -0.123 | silmitasertib 0.124 | [5] 0.029 | [6] -0.353

Fetched one by one from the entries so far (2):
NPC1L1 (UniProt Q9UHC9)
inactive: [1] 0.011 | [2] -0.038 | [3] -0.104 | [4] -0.024 | entinostat -0.011 | citarinostat 0.036 | silmitasertib -0.028 | [6] 0.054

NOSIP (UniProt Q9Y314)
inactive: [1] 0 | [2] -0.004 | [3] -0.095 | [4] -0.121 | entinostat 0.16 | vorinostat 0.163 | citarinostat 0.136 | silmitasertib 0.082 | [5] -0.095 | [6] 0.019
